Assay results from publication PMC10403255, “Two RNA-binding proteins mediate the sorting of miR223 from mitochondria into exosomes”.
No constants are given. Whether binding was seen depends on the method and setting. In cells and extracts the contact can be indirect. Some results given as binding are weak or reduced against the parent protein; the word gives no strength.

Amino acid sequences for entries named in this document (tags omitted). Residues count along the entry.
UniProt P67809: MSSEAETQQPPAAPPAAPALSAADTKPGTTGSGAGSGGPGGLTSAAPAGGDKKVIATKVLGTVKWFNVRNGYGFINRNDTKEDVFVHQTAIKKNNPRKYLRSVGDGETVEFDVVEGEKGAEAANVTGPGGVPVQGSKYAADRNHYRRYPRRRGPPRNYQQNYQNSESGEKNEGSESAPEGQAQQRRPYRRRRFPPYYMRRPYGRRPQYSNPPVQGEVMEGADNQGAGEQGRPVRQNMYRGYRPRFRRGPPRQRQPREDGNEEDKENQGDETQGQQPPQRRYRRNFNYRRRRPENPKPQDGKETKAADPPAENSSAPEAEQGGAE
UniProt Q07021, residues 74-282: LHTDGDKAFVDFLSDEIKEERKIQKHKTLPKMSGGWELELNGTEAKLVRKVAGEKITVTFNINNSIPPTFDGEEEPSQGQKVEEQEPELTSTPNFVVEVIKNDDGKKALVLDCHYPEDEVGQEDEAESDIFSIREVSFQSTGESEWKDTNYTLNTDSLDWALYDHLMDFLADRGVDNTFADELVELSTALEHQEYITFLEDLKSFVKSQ

How the values were obtained:
[1] = biological target: Twin Strep tag hybrid YBX1 (UniProt P67809); experiment: pull-down; Twin Strep-tagged YBX1 overexpressed in HEK293T; lysate on Strep-Tactin Sepharose, wash with 500 mM NaCl, elution with desthiobiotin, gel filtration (Superdex-200); copurified band seen by Coomassie blue and identified by immunoblot
His-MBP-YBX1 = His-MBP-YBX1 (UniProt P67809); experiment: pull-down; His-MBP-YBX1 coexpressed with untagged YBAP1 in Sf9 cells; lysate with Benzonase, 0.5 M KCl; Ni-NTA, then amylose resin, then gel filtration (Superdex-200); gel of the copurified proteins

| Substance | binding [1] | binding (His-MBP-YBX1) |
| --- | --- | --- |
| YBAP1 (endogenous, HEK293T) (from UniProt Q07021 74-282) | binds | – |
| untagged YBAP1 (from UniProt Q07021 74-282) | – | binds |
